Assay results: paper doi:10.1101/2022.05.10.491326
Results are given in words; binding and its absence hold for the method and conditions named. Binding seen in cells or lysates may run through a third protein. Here binding means that the protein was enriched with, or labelled near, the bait; the list need not be complete. For part of these data: No binding means not detected with the bait.

B1: PBP1 (protein, UniProt Q57UZ7 1-550)
chain: MEGSHSSNMERLEYLYLNLVGQVVQVRLVDDMCVEGLFVACTDVDAETDAGIMICCTRNLASAKRSPLSPSCVNFTDDLFIPYQSIVMIEVQNAKIRTETPGRPDTGRADFSATKFDWADDGVSELLESEPHQTGTWNQFEANEKSFGVKTTYKEEFYTTRLDHSKITEEQRAQADRLAREIESSSTRGIAHRMEREECLHDDEGLDEGQLYSDVHRPQEKKPPYVPPSTGGRKLVNEPPPVPAAAAPATAPTTAPAAAPAPAAAPPAAAPAAAAPPPPPAATSMADDGSMRHKRMNEDPHHMQYDANQTAAGFNPAAAPYTPMKPGAAVPVVDFLASLADAISNNDMCYDCEPHWPGMCNLFYDQDDSSYSQQNYEAAAMPPSHSMNMHMYVNSQPNIPNAHRGYQGPLGRVPHNQSMPMHHMQGQGFHHEMHHHQAFHGMGNYSSQHHNPPIQEYAPHKGQQGVVSRPGMRQGKGGGASRVEPQQPVSANTASSPPPVPTVDSAPNEVKPPAKLQRGRGMAAFTKGDMDGDSGATTNATGGPKKRVGK
B2: an IMP dehydrogenase (enzyme, UniProt P50098 1-512)
chain: MENTNLRTKTLRDGTTAEELFSQDGLSFNDFIILPGFIDFDSSKVNVSGQFTKNILLHLPLVSSPMDTVTESSMARAMALMGGIGVIHNNCTVEQQARMVRSVKLYRNGFIMKPKSVSPDVPVSTIRNIKSEKGISGILVTEGGKYDGKLLGIVCTKDIDFVKDASAPVSQYMTRRENMTVERYPIKLEEAMDVLNRSRHGYLPVLNDKDEVVCLCSRRDAVRARDYPNSSLDRNGHLLCAAATSTREADKGRVAALSEAGIDVLVLDSSQGNTIYQVSFIRWVKKTYPHLEVVAGNVVTQDQAKNLIDAGADSLRIGMGSGSICITQEVLACGRPQATAIYKVARYAASRGVPCVADGGLRNVGDVCKALAVGANVAMLGSMIAGTSETPGEYFFKDGMRLKGYRGMGSIDAMLQGRESGKRYLSENETLQVAQGVAGAVLDKGSVLKLLAYIHKGLQQSAQDIGEVSFDAIREKVYEGQVLFNRRTLTAQSEGAVHSLHHYERKLFASKL
B3: MKT1 (protein, UniProt Q587E3 1-735)
chain: MYPRHDDVSLFQRFVNDHKLEEKGLPLYQLAQLEGTDQVMLGVDGTKIIDMITQAVREREKMAIYTYTTPYTVYEKINEFRTMFQSIKNCTPVFVFNGIQYSPDSAEEFGREKNVVPSEVAALTGTDSSRLSNTTNVRFAEIHKKTANRFVVEEDVEGQIIRIFRSEFKNTIRAPYLAWAQLSSFRHCNHRHISEVYGCLELLAFPGIDRVVTNINPTRGTFDVVYKARVLEAARLSEEDLSSLILVESRSRVMRTVTLKFSSLEDMIKKVVRYKGSTIGASFAQQLHEEAIRASEANRMRASNQRGAAFRNLSAFASPVLTLTPPHCLPLHFLYGIPGFPHADAESFVGLPLPPVLYYIMSAGLLSPSLFAAVSQETVVDDWPLVDSIKYRDVAETVLPLRVQTIYQLAWTMSRGLGSISWFRRYNVLPARVSKLHVPPAIQLDGWALHSVTVPRGLHLVDVMEFAHLACSVDQVIYNTMEETYAAILLQSLDLLGYLTHETQDLHEEGQSSEPSTFGRALQLCSVPTLSEYTVLLIELARTNAISTEPFRITTEEVSPRDTPRDIVFASRVLSIIPLNVSGPWTAPIDAELAAFSMLSRMISRSIRQLLEAITTLMFSKGRTHVPLHRIGEIQRLLPFSTPVEFGCGVLVEYMLMKDKCTLKDLEEAFPECTYLRHDLATLFYFWDLAVQVLQRIETKENFCVDQHCLSSANERMKRAQKNLNILTGVRETYY
B4: PUF1 (protein, UniProt Q962F5 1-572)
chain: MSSDEETITTLYLRRQNILKQLSEVNNEIRTAEQQINEKSNNNETRRVEELVVKFGGDDDRESYLLDFCMRDANGLREAIRYVDALKALKECTSDDEVNRKKHLSRNTFVHAMIARSGELMVDANGSELIQHALGMLKSGGKVAPVLYSTDYIAASESDLSEFLLLLEVLKDKIPQICCDTNGSRAMQKVFDSLKSLEEVEFSAQCFSECIIELCKDIDGNHAVSRLLAAARGTPLWESGAAGDDSSSKLAHIHQLLYGKFPESCVDVCGNRHGCCVIQKCLQWAPEPYFSTLMDTIVHDTIKLVHDPFGNYVIQFILDHEQELSQRSSTGSEGADYTNRIIRQMLHNVAALSCNKFCSNVIEKCLKSATPDVRQLLVDELTDPQILPKLLTDSFANYVIQTAIVTSTEEKQFTQLRDSIMPLQRMLKNSPHGVKVESKLVRQQRELARKNGNQKNKKRWAQPAPQVMEKGMHEGFIGTHILPGMAGIPTIVGTDEFGGPALSLPGVAKEAVPIMTPTQYMPLMLPGQQTLIGLPQGYPQQQFPMDIMKGGNIWDPQQGFTLLHHPESKKGT

What was measured:
Experiment in all cases: affinity purification with mass spectrometry
[1] = target: EIF4E6-PTP (Trypanosoma brucei) (UniProt Q57V43)
[2] = target: EIF4E3-PTP (Trypanosoma brucei) (UniProt Q383A4)
[3] = target: EIF4E5-PTP (Trypanosoma brucei) (UniProt Q38B99)

Binder	binding [1]	binding [2]	binding [3]
B1	binds		
B2		binds	binds
B3	binds	binds	
B4			no binding
